Out of some 340,000 compounds screened, about 6,200 (1.8%) were called active. This list was built around the results that the source calls inconclusive (neither active nor inactive); the mix of calls is not that of the screen. Calls follow the shape of the dose curve; as a rule, active = well fitted activation curve with a large enough effect; inconclusive = small, poorly fitted or top-dose-only effect; inactive = no such curve, though single readings can be large or run the other way. Potencies of inconclusive entries are doubtful fits and often do not repeat.
Experiment: A quantitative high throughput screen for small molecules that induce DNA re-replication in SW480 colon adenocarcinoma cells. Also: nearly all actives have a fitted effect of over 55% in size. As to re-replication activation: % of control where 0% means no effect.
Conditions: Hoechst DNA content imaging, 48 h; re-replication activation: at 46.1 µM (top of the series) unless noted
Method in brief: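 DNA re-replication was detected as more nuclei of elevated Hoechst intensity after 48 hr exposure to compound (23 nL pinned per well of 250 cells).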
Potency is read from the fitted curve at half-maximal effect.

SMILES	re-replication activation	Potency
Cc1ccc(S(=O)(=O)N2C(=O)[C@@H]3Cc4ccccc4CN3C2=O)cc1	inactive: 20.5%	
CCCCCCCC(=O)N/N=C/c1ccc([N+](=O)[O-])o1		inconclusive: 18.4 µM [activator, single point]
Clc1ccc(SCCCCn2cncn2)cc1		inconclusive: 32.6 µM [activator, partial curve, poor fit]
CCOc1ccc2nc3cc(N=Nc4ccc(N)nc4N)ccc3c(N)c2c1		inconclusive: 32.6 µM [activator, partial curve, poor fit]
COC(=O)c1c(C)[nH]c(O)c1C=Nc1ccc(Oc2ccccc2)cc1	inactive: 11.7%	
COCCNC(=O)C(=O)N/N=C(\C)CC(=O)Nc1ccc2c(c1)OCO2	inactive: -8%	
COc1cc(C(=O)Nc2ccccc2N2CCCCC2)cc(OC)c1OC	inactive: 1.7%	
O=C1CCc2cc(S(=O)(=O)Nc3cccc(F)c3)cc3c2N1CC3		inconclusive: 2.06 µM [activator, single point]
CCC(C)(C)c1ccc(OCCCC[n+]2cccc(C)c2)c(C(C)(C)CC)c1		inconclusive: 14.6 µM [activator, single point]
C=CCNc1oc(-c2cccc(Cl)c2)nc1C#N		inconclusive: 29.1 µM [activator, partial curve, poor fit]
CCC(=O)C1CCCN(C(=O)CCc2nnc(-c3ccc(C(C)=O)s3)o2)C1 (configuration not stated)	inactive: -13.7%	
CCCCOc1ccc(-c2ncc(C(=O)OCC)c(N)n2)cc1		inconclusive: 18.4 µM [activator, partial curve, poor fit]
O=C(c1ccc([N+](=O)[O-])cc1)n1nc(-c2ccccc2)nc1NCc1ccccc1		inconclusive: 29.1 µM [activator, single point]
O=C(N=Nc1c(O)[nH]c2ccccc12)c1ccccc1NS(=O)(=O)c1cccs1		inconclusive: 3.26 µM [activator, single point]
COc1ccccc1NS(=O)(=O)c1cccc(C(=O)N/N=C/c2cn(-c3ccccc3)nc2-c2ccccc2)c1		inconclusive: 4.11 µM [activator, partial curve, poor fit]
CCCCCCC(=O)N/N=C/c1ccc(Br)cc1		inconclusive: 16.4 µM [activator, partial curve, poor fit]
O=C(Nc1ccc(C(=O)N2CCOCC2)cc1)C1CCC1		inconclusive: 5.17 µM [activator, single point]
O=C(O)C1(c2ccccc2)CCN(S(=O)(=O)c2ccccc2)CC1	inactive: -3.24%	
CCCN1CCc2c(sc(NC(=O)CCS(=O)(=O)c3ccccc3)c2C(=O)OC)C1		inconclusive: 29.1 µM [activator, single point]
CCOc1ccc2[nH]c3c(N4CCN(C(=O)c5ccco5)CC4)ncnc3c2c1		inconclusive: 29.1 µM [activator, single point]
COc1ccccc1NC(=S)N/N=C1\CC(C)(C)Oc2ccc(O)cc21		inconclusive: 18.4 µM [activator, single point]
CSc1nc(NCC(C)C)c2c3c(sc2n1)CN(C)CC3	inactive: 6.12%	
CCS(=O)(=O)Nc1ccc(C2=NN(C(C)=O)C(c3cccs3)C2)cc1 (configuration not stated)		inconclusive: 29.1 µM [activator, single point]

SMILES	re-replication activation	Potency
COc1ccc(C2CC(c3ccncc3)=NN2c2ccc(S(N)(=O)=O)cc2)cc1 (configuration not stated)		active: 18.4 µM
Cc1ccc(C2=NN(C(=O)c3cccs3)C(c3ccccc3O)C2)cc1 (configuration not stated)		inconclusive: 29.1 µM [activator, single point]
O=C(NNc1cc(N2CCOCC2)nc(N2CCOCC2)n1)C12CC3CC(CC(C3)C1)C2	inactive: -48.6%	
Cc1ccc2c(CC(=O)NNC(=O)c3ccccc3O)coc2c1		inconclusive: 0.103 µM [activator, full curve, poor fit]
COC(=O)c1c(-c2ccc(OC)cc2)sc2ccc(N3CCOCC3)cc12	inactive: 0.467%	
Cc1ccc(S(=O)(=O)Nc2ccccc2F)cc1C(=O)NNC(=O)c1ccccc1O	inactive: 12.1%	
Cc1ccc(/C=N/n2c(C)nnc2C)cc1		inconclusive: 29.1 µM [activator, single point]
O=C(O)c1cccc(NC2=C(n3nnc4ccccc43)C(=O)c3ccccc3C2=O)c1	inactive: -0.943%	
CCOC(=O)c1cnc(SCc2nc(N)nc(Nc3ccc(C)cc3)n2)nc1N		inconclusive: 23.1 µM [activator, single point]
C[C@H](NS(=O)(=O)c1ccccc1F)C(=O)OCC(=O)Nc1ccc2c(c1)OCCO2	inactive: -2.43%	
NC(=O)C(c1ccc(Br)cc1)c1ccc(C(=O)c2ccccc2)cc1 (configuration not stated)		inconclusive: 2.59 µM [activator, full curve, poor fit]
O=C(N/N=C/c1ccccc1C(F)(F)F)c1ccc2nc[nH]c2c1		inconclusive: 23.1 µM [activator, single point]
COc1cccc(/C=N/n2nnnc2N)c1O	inactive: -4.1%	
COc1ccc(CCNC(=O)C(=O)NCC2OCCN2S(=O)(=O)c2cc(F)ccc2F)cc1 (configuration not stated)	inactive: 5.15%	
O=C(N/N=C/C(Br)=C\c1ccccc1)c1ccc2nc[nH]c2c1		inconclusive: 18.4 µM [activator, single point]
O=C(COC(=O)c1ccccc1O)Nc1ccc(N2CCOCC2)cc1		inconclusive: 29.1 µM [activator, single point]
N/C(=N\OC(=O)c1cc([N+](=O)[O-])ccc1Cl)c1ccccn1		inconclusive: 29.1 µM [activator, single point]
O=[N+]([O-])c1ccc(N2CCN(CC(O)COc3ccccc3)CC2)cc1 (configuration not stated)		inconclusive: 16.4 µM [activator, single point]
COc1ccc(NC(=O)C2C(c3ccccc3)C2(Cl)Cl)c(OC)c1 (configuration not stated)	inconclusive: 48.3% [activator]	
CCOC(=O)C1C(=O)NC(c2ccccc2)=NC1c1ccc(C(C)C)cc1 (configuration not stated)	inactive: 5.63%	
FC(F)Oc1ccccc1NC(=S)NCCc1ccccc1		inconclusive: 3.26 µM [activator, partial curve, poor fit]
CC(NC(=O)C(C)(C)C)C(c1cccs1)N1CCOCC1 (configuration not stated)	inactive: -19.5%	
Cc1ccccc1Oc1cc(-n2ncc(Cl)c(Cl)c2=O)ncn1		inconclusive: 0.731 µM [activator, full curve]

Part of the list above, with bars between the fields.
SMILES | re-replication activation | Potency
COc1cc(C(=O)Nc2ccccc2N2CCCCC2)cc(OC)c1OC | inactive: 1.7% | 
O=C1CCc2cc(S(=O)(=O)Nc3cccc(F)c3)cc3c2N1CC3 |  | inconclusive: 2.06 µM [activator, single point]

Single values from the entries so far:
Value of N/C(=N\OC(=O)c1cc([N+](=O)[O-])ccc1Cl)c1ccccn1 under Potency: inconclusive: 29.1 µM [activator, single point]
Value of COc1ccccc1NC(=S)N/N=C1\CC(C)(C)Oc2ccc(O)cc21 under Potency: inconclusive: 18.4 µM [activator, single point]
Value of COc1ccc(C2CC(c3ccncc3)=NN2c2ccc(S(N)(=O)=O)cc2)cc1 (configuration not stated) under Potency: active: 18.4 µM

(list continues)

SMILES	re-replication activation	Potency
Cn1c(=O)n(C)c2cc([N+](=O)[O-])c(N3CCN(C(=O)c4ccc(Cl)cc4)CC3)cc21		inconclusive: 29.1 µM [activator, single point]
COc1cccc(C(=O)OCC(=O)Nc2sc3c(c2C(N)=O)CCC3)c1O		inconclusive: 6.51 µM [activator, single point]
CCOC(=O)CN1NC2(CCCCC2)NC1=S	inactive: -13.1% [at 9.22 µM]	
CN(C)c1ccc(-n2cccc2/C=C2/SC(=Nc3ccc(F)cc3)NC2=O)cc1		inconclusive: 7.31 µM [activator, partial curve, poor fit]
CC(C)C(=O)Nc1cccc(COc2ccc(CN(Cc3ccccc3)C(=O)OC(C)(C)C)cc2)c1		inconclusive: 1.3 µM [activator, full curve, poor fit]
COc1ccc2c(-c3ccccc3)cc(SCC(N)=O)nc2c1		inconclusive: 18.4 µM [activator, single point]
Cc1cc(Br)ccc1NC(=O)CNC(=O)Cn1ncc(Cl)c(Cl)c1=O		inconclusive: 0.651 µM [activator, full curve, poor fit]
COC(=O)c1cccc(NS(=O)(=O)c2ccc(OC)cc2)c1C		inconclusive: 29.1 µM [activator, single point]
C=CCOc1c(Br)cc(C2C3=C(CCCC3=O)N(C)C3=C2C(=O)CCC3)cc1OCC		active: 23.1 µM
Cc1cc(C)n(CC(=O)N/N=C/c2cc([N+](=O)[O-])ccc2O)n1		inconclusive: 20.6 µM [activator, single point]
CC1(C)C/C(=N\O)C(C(O)c2cccc([N+](=O)[O-])c2)C(C)(C)N1 (configuration not stated)		inconclusive: 0.164 µM [activator, full curve, poor fit]
CCCCc1ccc(NC(=O)CSc2nc(=O)n(CCN(C)C)c3c2CCC3)cc1		inconclusive: 18.4 µM [activator, single point]
COc1ccc(CNCCC(c2ccc(F)cc2)c2ccc(OC)cc2)cc1 (configuration not stated)		inconclusive: 29.1 µM [activator, single point]
Cc1ccc(S(=O)(=O)N(C)C)cc1NC(=O)COC(=O)Cc1cccs1	inactive: -5.91%	
O=c1[nH]c(CN(CCc2ccccc2)S(=O)(=O)c2ccc(Cl)cc2)nc2ccccc12		inconclusive: 0.164 µM [activator, full curve, poor fit]
O=C(NCC1CCCO1)c1c(O)c2c([nH]c1=O)CCCC2 (configuration not stated)		inconclusive: 23.1 µM [activator, partial curve, poor fit]
Cc1ccc2nc(N/N=C/c3ccccc3F)nc(-c3ccccc3)c2c1	inactive: 22.1%	
CCCCn1c(N)c(N(CC)C(=O)CCNC(=O)NC23CC4CC(CC(C4)C2)C3)c(=O)[nH]c1=O	inactive: 5.96%	
CC(=O)N1N=C(c2ccccc2)CC1c1cn(Cc2ccccc2)c2ccccc12 (configuration not stated)		inconclusive: 29.1 µM [activator, single point]
Cc1nn(-c2nc3ccccc3[nH]2)c(N)c1-c1ccc(Cl)cc1		inconclusive: 32.6 µM [activator, partial curve, poor fit]
O=C(NC12CC3CC(CC(C3)C1)C2)c1cncc(Br)c1		inconclusive: 16.4 µM [activator, single point]
